# Laboratory results taken from the supplement of paper PMC8256030.
# Values joined by “and” are separate entries in the source; they are usually repeats but may differ in a detail not shown here. Identical values can stand only once. Counter-ions that a name gives are not always drawn. Some of the results follow. Repeats in this data set agree poorly, so a single value says little.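 HEK293T cells were given each compound shortly before transfection with a reporter in which red mCherry is followed by the SARS-CoV-2 frameshift element and then GFP in the −1 frame, so GFP appears only after frameshifting.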
# Test system: HEK293T
# Assay: percent viability (nuclei count) relative to control; higher = more viable cells
# Details: 10 µM; 24 h
row,SMILES,percent viability
1,CC(C)C(=O)c1c(C(C)C)nn2ccccc12 [ibudilast],283%
2,C[C@@H]1C[C@H]2[C@@H]3C[C@H](F)C4=CC(=O)C=C[C@]4(C)[C@@]3(Cl)[C@@H](O)C[C@]2(C)[C@H]1C(=O)CO [clocortolone],406%
3,O=C1NOCC1/N=C/c1ccc(/C=N/C2CONC2=O)cc1 (stereo not given) [terizidone],226%
4,CC(C)c1cc(C(C)C)c(CC(=O)NS(=O)(=O)Oc2c(C(C)C)cccc2C(C)C)c(C(C)C)c1 [avasimibe],45.5%
5,CC(C)(C)NCC(O)COc1ccccc1C#N (stereo not given) [bunitrolol],352%
6,COC(=O)Nc1nc2cc(Sc3ccccc3)ccc2[nH]1 [fenbendazole],34.6% and 25%
7,CC(C)[N+]1(C)[C@@H]2CC[C@H]1CC(OC(=O)C(CO)c1ccccc1)C2 (stereo not given in full),180%
8,CN(C)[C@@H]1C(=O)C(C(N)=O)=C(O)[C@@]2(O)C(=O)C3=C(O)c4c(O)ccc([N+](=O)[O-])c4C[C@H]3C[C@@H]12 [nitrocycline],126%
9,CC(=O)O[C@H]1C[C@@]2(C)[C@@H](C[C@@H](O)[C@H]3[C@@]4(C)CC[C@@H](O)[C@@H](C)[C@@H]4CC[C@@]32C)/C1=C(\CCC=C(C)C)C(=O)O [fusidic acid],219%
10,CCCCCCC[N+](CC)(CC)CCCCc1ccc(Cl)cc1 [clofilium tosylate],89.9%
11,C[C@]12CC[C@@H]3c4ccc(O)cc4C[C@@H](CCCCCCCCC[S+]([O-])CCCC(F)(F)C(F)(F)F)[C@H]3[C@@H]1CC[C@@H]2O (stereo not given in full),350%
12,CC1(C)[C@@H]2CC[C@@]1(C)C(=O)C2,368%
13,C#C[C@]1(O)CC[C@H]2[C@@H]3CCc4cc(O)ccc4[C@H]3CC[C@@]21C [ethinylestradiol],33.3%
14,Cc1nc2n(c(=O)c1CCN1CCC(c3noc4cc(F)ccc34)CC1)CCCC2 [risperidone],328% and 257%
15,Clc1ccc(CO/N=C(\Cn2ccnc2)c2ccc(Cl)cc2Cl)c(Cl)c1 [Oxiconazole],309% and 203%
16,C[N+]12CCCCC1CCC(=C(c1cccs1)c1cccs1)C2 (stereo not given) [tiquizium bromide],190%
17,CCCCCNC(=N)N/N=C/c1c[nH]c2ccc(OC)cc12,132%
18,CC(C)COC(=O)c1ccc(N)cc1 [isobutamben],87.6%
19,CC(C(=O)O)c1ccc2oc(-c3ccc(Cl)cc3)nc2c1 (stereo not given) [benoxaprofen],243%
20,C[C@@H]1[C@H](O)[C@@H](C)/C=C/C=C/C=C/C=C/C=C/C=C/C=C/[C@H](O[C@@H]2O[C@H](C)[C@@H](O)[C@H](N)[C@@H]2O)C[C@@H]2O[C@](O)(C[C@@H](O)C[C@@H](O)[C@H](O)CC[C@@H](O)C[C@@H](O)CC(=O)O[C@H]1C)C[C@H](O)[C@H]2C(=O)O [Fungizone],21.7%

row,SMILES,percent viability
1,CC1(C)S[C@@H]2[C@H](NC(=O)[C@H](N)c3ccc(O)cc3)C(=O)N2[C@H]1C(=O)O [amoxicillin],153%
2,CCC1=C[C@@H]2CN(C1)Cc1c([nH]c3ccccc13)[C@@](C(=O)OC)(c1cc3c(cc1OC)N(C)[C@H]1[C@@](O)(C(=O)OC)[C@H](OC(C)=O)[C@]4(CC)C=CCN5CC[C@]31[C@@H]54)C2 [Vinorelbine],18.5%
3,CCCC(=O)Nc1ncnc2c1ncn2[C@@H]1O[C@@H]2COP(=O)(O)O[C@H]2[C@H]1OC(=O)CCC,213%
4,Cc1cccc(N2CC(CO)OC2=O)c1 (stereo not given) [Toloxatone],116%
5,CN1C(C(=O)Nc2ccccn2)=C(O)c2sc(Cl)cc2S1(=O)=O [lornoxicam],169%
6,COc1ccc2c(O[C@@H]3C[C@H]4C(=O)N[C@]5(C(=O)NS(=O)(=O)C6CC6)C[C@H]5/C=C\CCCCN(C)C(=O)[C@@H]4C3)cc(-c3nc(C(C)C)cs3)nc2c1C [Simeprevir],261%
7,O=C1NS(=O)(=O)c2ccccc21,286%
8,CC[C@]12CCCN3CCc4c(n(c5ccccc45)[C@@](O)(C(=O)OC)C1)[C@@H]32,125%
9,CC(C)OC(=O)c1cc2c(OCC(O)CNC(C)(C)C)cccc2[nH]1 (stereo not given) [carpindolol],183%
10,COc1ccc2nc3cc(Cl)ccc3c(Nc3cc(CN4CCCC4)c(O)c(CN4CCCC4)c3)c2n1,278%
11,NC(=O)C1=CN([C@@H]2O[C@H](COP(=O)(O)OP(=O)(O)OC[C@H]3O[C@@H](n4cnc5c(N)ncnc54)[C@H](O)[C@@H]3O)[C@@H](O)[C@H]2O)C=CC1,159%
12,NC(=O)CC[C@@H]1NC(=O)[C@H](Cc2ccccc2)NC(=O)[C@H](Cc2ccc(O)cc2)NC(=O)[C@@H](N)CSSC[C@@H](C(=O)N2CCC[C@H]2C(=O)N[C@@H](CCCN=C(N)N)C(=O)NCC(N)=O)NC(=O)[C@H](CC(N)=O)NC1=O [argipressin],207%
13,O=c1[nH]c2cc(Cl)c(Cl)c([N+](=O)[O-])c2[nH]c1=O [licostinel],174%
14,CC(=O)OCC1=C(C(=O)O)N2C(=O)[C@@H](NC(=O)CC#N)[C@H]2SC1 [cefacetrile],377%
15,CC(=O)OCC(=O)[C@@]1(O)CC[C@H]2[C@@H]3CCC4=CC(=O)C=C[C@]4(C)[C@@]3(F)[C@@H](O)C[C@@]21C,65%
16,Cc1ccc(S(=O)(=O)NCl)cc1 [tosylchloramide sodium],212%
17,COC(=O)[C@H](Cc1ccccc1)NC(=O)[C@@H](N)CC(=O)O [aspartame],122%
18,C[C@@](Cc1ccc(O)c(O)c1)(NN)C(=O)O [carbidopa],259% and 308%
19,CCC(CC)CC1(C(=O)Nc2ccccc2SC(=O)C(C)C)CCCCC1 [dalcetrapib],322%
20,C[C@H](O)[C@H](O)[C@H]1CNc2nc(N)[nH]c(=O)c2N1 [Sapropterin],234%
